In the assay the target is wild-type Myc-PHB2 (prohibitin 2) (UniProt Q99623). Put plainly: co-IP; L02 cells co-transfected for 48 h, treated with 400 uM GCDCA for 4 h, lysed in IP/lysis buffer; supernatant incubated with Myc-Tag or Flag-Tag Sepharose bead conjugate overnight at 4 °C; western blot with HA, Flag and Myc antibodies; also SQSTM1 knockdown cells. Background: Immunoblotting shows a protein as a band on a membrane.

This passage reports binding results from paper PMC5833850.

Results are given in words; binding and its absence hold for the method and conditions named. In cells and extracts the contact can be indirect. Some binding calls cover weakened binding; strength is not graded here.

As for “Flag-SQSTM1 (sequestosome 1) (from UniProt Q13501 1-440)”, the binding entry is reported as “binds”.
